The record followed here is paper PMC3180432.

Chains of the proteins cited; added tags and fusions are not shown. Residues count along the entry.
UniProt Q9EP73, residues 19-290: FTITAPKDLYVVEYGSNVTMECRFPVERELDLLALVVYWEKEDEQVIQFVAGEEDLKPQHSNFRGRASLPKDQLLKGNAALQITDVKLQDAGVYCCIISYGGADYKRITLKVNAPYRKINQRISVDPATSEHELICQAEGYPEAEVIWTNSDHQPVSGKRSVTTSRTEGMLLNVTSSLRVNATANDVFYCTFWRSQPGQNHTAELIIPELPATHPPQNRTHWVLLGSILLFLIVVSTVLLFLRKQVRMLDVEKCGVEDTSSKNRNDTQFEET
UniProt Q00609, residues 38-306: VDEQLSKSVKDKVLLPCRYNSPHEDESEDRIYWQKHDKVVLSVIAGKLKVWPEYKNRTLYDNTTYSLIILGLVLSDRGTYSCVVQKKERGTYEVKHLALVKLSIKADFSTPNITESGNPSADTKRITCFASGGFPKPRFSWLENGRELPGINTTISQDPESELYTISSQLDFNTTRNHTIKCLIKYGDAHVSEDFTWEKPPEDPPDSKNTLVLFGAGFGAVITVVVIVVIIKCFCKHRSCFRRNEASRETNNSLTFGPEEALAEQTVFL
UniProt P06213, residues 28-1382: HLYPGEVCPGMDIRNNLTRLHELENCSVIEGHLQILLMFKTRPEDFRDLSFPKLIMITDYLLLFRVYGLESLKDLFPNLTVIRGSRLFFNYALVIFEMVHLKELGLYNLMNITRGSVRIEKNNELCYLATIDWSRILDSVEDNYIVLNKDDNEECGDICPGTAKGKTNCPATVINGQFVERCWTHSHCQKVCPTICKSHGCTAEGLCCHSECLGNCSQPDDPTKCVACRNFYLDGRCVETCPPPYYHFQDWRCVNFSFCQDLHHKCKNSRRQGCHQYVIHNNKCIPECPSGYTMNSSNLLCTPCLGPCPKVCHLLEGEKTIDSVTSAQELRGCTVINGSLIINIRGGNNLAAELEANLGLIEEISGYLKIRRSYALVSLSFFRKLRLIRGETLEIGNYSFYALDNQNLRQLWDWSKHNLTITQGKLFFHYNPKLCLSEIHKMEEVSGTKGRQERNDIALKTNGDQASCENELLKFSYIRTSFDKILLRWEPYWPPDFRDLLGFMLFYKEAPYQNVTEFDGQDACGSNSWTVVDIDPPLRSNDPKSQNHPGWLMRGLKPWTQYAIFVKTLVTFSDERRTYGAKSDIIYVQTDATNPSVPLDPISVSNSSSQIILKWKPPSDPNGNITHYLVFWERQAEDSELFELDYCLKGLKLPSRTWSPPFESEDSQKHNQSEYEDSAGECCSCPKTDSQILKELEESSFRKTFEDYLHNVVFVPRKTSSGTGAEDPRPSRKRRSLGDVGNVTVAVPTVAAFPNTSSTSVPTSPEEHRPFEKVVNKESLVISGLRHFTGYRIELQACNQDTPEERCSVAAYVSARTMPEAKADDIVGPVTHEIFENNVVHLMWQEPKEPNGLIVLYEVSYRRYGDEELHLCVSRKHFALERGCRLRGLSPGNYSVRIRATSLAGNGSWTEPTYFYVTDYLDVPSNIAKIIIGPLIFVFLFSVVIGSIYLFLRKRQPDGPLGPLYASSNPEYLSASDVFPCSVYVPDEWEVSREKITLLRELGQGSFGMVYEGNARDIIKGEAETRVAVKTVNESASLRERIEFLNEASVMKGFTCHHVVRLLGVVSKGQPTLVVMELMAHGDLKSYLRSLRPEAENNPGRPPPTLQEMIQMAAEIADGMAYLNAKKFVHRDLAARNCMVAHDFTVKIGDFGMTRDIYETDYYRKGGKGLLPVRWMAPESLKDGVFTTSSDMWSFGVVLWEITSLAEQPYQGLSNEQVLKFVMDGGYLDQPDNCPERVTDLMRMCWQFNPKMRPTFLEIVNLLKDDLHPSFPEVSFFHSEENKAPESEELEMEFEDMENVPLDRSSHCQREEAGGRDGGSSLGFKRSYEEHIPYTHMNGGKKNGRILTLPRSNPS

Test [1] deals with B7-H1 fused to Rluc8 or YPet (mouse) (UniProt Q9EP73). Nature of the test: FRET or BRET; BRET donor saturation in live transfected HeLa cells: constant Rluc8 fusion (donor), increasing YPet fusion (acceptor), coelenterazine H 5 uM. (In general: In BRET a luciferase serves as donor, and the signal depends on an acceptor being close.)
The target in test [2] is B7.1 fused to Rluc8 or YPet (mouse) (UniProt Q00609). The description is as above.

Results are given in words; binding and its absence hold for the method and conditions named. In cells and extracts the contact can be indirect. Some entries that bind do so weakly or less than the wild type.

Take “B7-H1 fused to Rluc8 or YPet (from UniProt Q9EP73 19-290) (receptor)”: in test [1], the binding result was “binds”.

For the substance “B7.1 fused to Rluc8 or YPet (from UniProt Q00609 38-306) (receptor)”, in test [2], the binding entry is on record as “binds”.

For the substance “insulin receptor fused to YPet (from UniProt P06213 28-1382)”, the binding entry in test [1] and in test [2] was “no binding” each time.
